PubChem BioAssay AID445 (National Center for Advancing Translational Sciences (NCATS), 2006)
Some of the results follow. Further columns of the screen follow, without active or inactive calls. The list favours compounds with an active or inconclusive main result. Words in brackets tell the shape of the fitted curve; partial curves, single points and poor fits give uncertain potencies.

Assay: IkB Signaling
Details: ABC-DLBCL IkBa-CBG/CBR dual luciferase ratio (green luciferase fused to IkBa over red control in OCI-Ly3 lymphoma cells), 4 h
Summary of the method: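 In this assay, an IκBα–CBG68 fusion accumulates when IKK-driven degradation is blocked; native CBR normalizes for cell number. OCI-Ly3 cells were treated 4 h with compound and doxycycline, then green and red light read after Chroma-Glo addition.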

[1] = measured here: control luc red channel unless noted
[2] = measured here: IkB-luc green channel
[3] = measured here: control luc red channel

## O=C(Nc1ccc(C(F)(F)F)cc1)C1CCCN(c2cnccn2)C1 (stereo not drawn)
[1]
  AC50: 39.8 µM [falling, single point]

## COc1ccc(Nc2ncc3c(n2)CCN(Cc2cc(Br)cs2)C3)c(OC)c1
[1]
  AC50: 31.6 µM [falling, single point]

## Cn1cnc2cc(NC(=O)c3ccc(Cl)cc3)ccc21
[1]
  AC50: 20 µM [falling, partial curve]

## Cn1nc(-c2ccc(C(=O)Nc3ccc(F)cc3)cc2)c2ccccc2c1=O
[1]
  AC50: 39.8 µM [rising, single point] [measured here: IkB-luc green channel]

## COc1ccc2cc(-c3nc4ccc(C(=O)O)cc4[nH]3)c(=O)oc2c1
[1]
  AC50: 0.00631 µM [falling, full curve]

## C=Cc1ccc(Cn2nc(-c3ccc(C)c(S(=O)(=O)N(CC)CC)c3)ccc2=O)cc1
[1]
  AC50: 31.6 µM [falling, single point]

## CC(C)c1ccc(S(=O)(=O)NCc2ccc3c(c2)CCN3C(=O)c2ccccc2)cc1
[1]
  AC50: 6.31 µM [rising, single point]

## Brc1cc(Br)c2ncnc(N3CCCCC3)c2c1
[1]
  AC50: 25.1 µM [falling, partial curve]

## COc1ccc(-c2cc(C(F)(F)F)c(C#N)c(SCC(=O)Nc3ccc(F)cc3)n2)cc1
[1]
  AC50: 0.0251 µM [falling, full curve, poor fit]

## COCCn1c(SCc2nc3ccccc3s2)nc2ccccc21
[1]
  AC50: 15.8 µM [falling, partial curve]

## Cc1ccc(NCc2cccn2-c2nnc(N3CCC(C(=O)NC(C)C)CC3)s2)cc1
[1]
  AC50: 15.8 µM [falling, single point]

## Cc1ccc(S(=O)(=O)N2CCCc3cc(NS(=O)(=O)c4ccc(F)c(C)c4)ccc32)cc1
[1]
  AC50: 39.8 µM [falling, single point]

## O=S(=O)(NCCOC12CC3CC(CC(C3)C1)C2)c1cccc2nsnc12
[1]
  AC50: 12.6 µM [falling, partial curve]

## CCc1ccc(CNC(=O)c2ccc3c(c2)N=C(C)c2cc(C)ccc2S3)cc1
[1]
  AC50: 10 µM [falling, partial curve]

## CN(C)CCNC(=O)c1ccc(-n2c(-c3ccccc3)cc3c2CCCC3)cc1
[1]
  AC50: 7.94 µM [falling, partial curve]

## Cc1ccc(S(=O)(=O)C(CNC(=O)C(=O)NCc2ccc(Cl)cc2)c2cccs2)cc1 (stereo not drawn)
[1]
  AC50: 31.6 µM [falling, single point]

## Cc1ccc(C(=O)NCCn2c(C)cc3ccccc32)cc1C
[1]
  AC50: 39.8 µM [falling, single point]

## Cc1c(NC(=O)c2ccc(OC(C)C)cc2)cccc1-c1nc2ncccc2o1
[1]
  AC50: 31.6 µM [falling, partial curve]

## Cc1ccc(S(=O)(=O)c2cn(CC(=O)Nc3ccc(C)c(Cl)c3)c3ccc(C)cc3c2=O)cc1
[1]
  AC50: 12.6 µM [falling, single point]

## COc1cccc(C(=O)NCCSc2c(-c3ccc(F)cc3)[nH]c3ccccc23)c1OC
[1]
  AC50: 5.01 µM [falling, partial curve]

## O=c1c2c(nc3nc(SCc4ccccc4)[nH]n13)CCC2
[1]
  AC50: 1.58 µM [falling, full curve]

## CCc1ccc(CNC(=O)CCSCc2ccccc2F)cc1
[1]
  AC50: 0.398 µM [falling, single point]

## Cc1ccc(-n2nc(C)c3c2OC(N)=C(C#N)C3c2cccs2)cc1 (stereo not drawn)
[1]
  AC50: 31.6 µM [falling, partial curve]

## Cc1cccc(NS(=O)(=O)c2ccc3[nH]c(=O)ccc3c2)c1C
[1]
  AC50: 0.2 µM [falling, full curve, poor fit]

## Cc1oc2ccc(O)c(CN(C)Cc3ccccc3)c2c1C(=O)Nc1cccc(C(F)(F)F)c1
[1]
  AC50: 7.94 µM [falling, partial curve]

## COc1ccc(C(=O)c2cn(CC(=O)Nc3ccc4c(c3)OCCO4)c3ccc(OC)cc3c2=O)cc1
[1]
  AC50: 1.58 µM [falling, full curve, poor fit]

## COc1cccc(C2=CC(c3ccc(OC)c(OC)c3OC)n3ncnc3N2)c1 (stereo not drawn)
[1]
  AC50: 1 µM [rising, full curve]

## O=C(CSc1nc(-c2ccccc2)no1)N1CCN(c2ccccc2F)CC1
[1]
  AC50: 5.01 µM [falling, partial curve]

## Cc1[nH]c2ccccc2c1C(c1ccccn1)N1CCC(C(N)=O)CC1 (stereo not drawn)
[1]
  AC50: 39.8 µM [rising, single point] [measured here: IkB-luc green channel]

## Cc1ccc(C(C)C)c(OCC(=O)Nc2cccc(NC(=O)c3ccco3)c2)c1
[1]
  AC50: 12.6 µM [falling, partial curve]

## Cc1ccc(-c2ccc(=O)n(Cc3cc(C)ccc3C)n2)cc1
[1]
  AC50: 39.8 µM [falling, single point]

## CCCc1cc(N2CCCC(C(=O)Nc3cc(Cl)ccc3OC)C2)n2ncnc2n1 (stereo not drawn)
[1]
  AC50: 31.6 µM [falling, single point]

## CC1=Nc2cc(C(=O)NCCc3ccc(Cl)cc3)ccc2Sc2ccc(C)cc21
[2]
  AC50: 6.31 µM [rising, single point]
[3]
  AC50: 39.8 µM [falling, partial curve, poor fit]

## COc1ccc(OC)c(NC(=O)c2cc(-c3cc(Cl)ccc3O)n[nH]2)c1
[1]
  AC50: 3.16 µM [falling, full curve, poor fit]

## COC(=O)C(Cc1c[nH]c2ccccc12)NC(=O)COc1ccc(Cl)cc1Cl (stereo not drawn)
[1]
  AC50: 25.1 µM [falling, partial curve]

## CCN(c1cc(C)cc(C)c1)S(=O)(=O)c1nnc(NC(=O)c2cccs2)s1
[1]
  AC50: 10 µM [falling, partial curve]

## CCOc1ccc(-n2c(CCC(=O)O)ccc2-c2ccc(Br)cc2)cc1
[1]
  AC50: 15.8 µM [falling, partial curve]

## COc1ccccc1CNC(=O)c1ccc(N2CCCC2)c(NC(=O)NCc2ccccc2)c1
[1]
  AC50: 10 µM [falling, partial curve]

## CCN(CC)S(=O)(=O)c1nnc(NC(=O)COc2ccccc2Cl)s1
[1]
  AC50: 7.94 µM [falling, partial curve]

## CCOc1ccc(C(=O)Nc2cccc(NC(=O)c3ccco3)c2)cc1Cl
[1]
  AC50: 1.26 µM [falling, full curve]

## CCC(C(=O)N1CCN(c2ccccc2)CC1)n1nc(C)n2c(cc3sccc32)c1=O (stereo not drawn)
[1]
  AC50: 39.8 µM [falling, single point]

## COc1ccc(C(=O)NCc2nnc(SCC(=O)Nc3ccccc3)n2-c2ccc(F)cc2)cc1
[1]
  AC50: 12.6 µM [falling, partial curve]

## CCOc1ccc(CCNC(=O)CN2C(=O)C(CC)Oc3ccccc32)cc1OCC (stereo not drawn)
[1]
  AC50: 0.126 µM [rising, full curve]

## COc1ccc(OC)c(NC(=O)CSc2ccnc(=O)[nH]2)c1
[1]
  AC50: 501 nM [rising, full curve, poor fit] [measured here: IkB-luc green channel]

## COc1ccc(NC(=O)c2c(NCc3ccc(C)o3)sc3c2CCC(C)C3)c(OC)c1 (stereo not drawn)
[1]
  AC50: 25.1 µM [falling, single point]

## Cn1c(=O)oc2cc(S(=O)(=O)CCC(=O)N3CCN(c4ccccc4)CC3)ccc21
[1]
  AC50: 39.8 µM [falling, single point]

## COc1ccccc1-c1cc(C(=O)Nc2sc3c(c2C#N)CCCC3)no1
[1]
  AC50: 3.16 µM [falling, full curve]

## CC(=O)c1ccc(Oc2cc(C)nc(-n3nc(C)cc3C)n2)cc1
[2]
  AC50: 6.31 µM [rising, single point]
[3]
  AC50: 1 µM [rising, single point]

## COc1ccc(C2CC(c3c(O)n(C4CCCCC4)c(=O)[nH]c3=O)=Nc3ccccc3S2)cc1 (stereo not drawn)
[1]
  AC50: 31.6 µM [falling, single point]

## CCOc1cc(N2CCOCC2)c(OCC)cc1NC(=O)COc1cccc2cccnc12
[1]
  AC50: 10 µM [falling, partial curve]

## CC(C)Cn1c(=O)c2ccccc2n2c(CCC(=O)Nc3cccc(Cl)c3)nnc12
[1]
  AC50: 10 µM [falling, partial curve]

## O=C(Cc1ccccc1)Nc1nc2ccccc2[nH]1
[1]
  AC50: 12.6 µM [falling, partial curve]

## Cc1nc2c(c(=O)n1Cc1ccccc1Cl)c1nc3ccccc3nc1n2Cc1ccco1
[1]
  AC50: 31.6 µM [rising, single point] [measured here: IkB-luc green channel]

## CCC(CC)c1nn2c(=O)cc(COc3ccc(NC(=O)c4ccccc4Cl)cc3)nc2s1
[1]
  AC50: 7.94 µM [falling, full curve, poor fit]

## Cc1cccc(CNS(=O)(=O)c2ccc3[nH]c(=O)ccc3c2)c1
[1]
  AC50: 39.8 µM [falling, single point]

## COc1ccc(Cn2c(=O)[nH]c3cc(C(=O)N4CCN(c5cc(C)ccc5C)CC4)ccc3c2=O)cc1
[1]
  AC50: 3.16 µM [falling, full curve]

## COc1ccc(C)cc1NC(=O)c1cc(S(=O)(=O)NC2CCCCCC2)ccc1F
[1]
  AC50: 31.6 µM [falling, single point]

## Cc1ccc(Cn2nnc3c(=O)n(CC(=O)OCc4ccccc4)cnc32)cc1
[1]
  AC50: 31.6 µM [falling, single point]

## CCC1CN(C(=O)Nc2cc(C)cc(C)c2)c2ccccc2O1 (stereo not drawn)
[1]
  AC50: 10 µM [falling, partial curve]

## Cc1c(C)n(Cc2ccccc2)c2ccc(C(=O)NCc3ccco3)cc12
[1]
  AC50: 7.94 µM [rising, partial curve]

## Fc1ccc(CSc2ncnc3nc[nH]c23)cc1
[1]
  AC50: 0.631 µM [rising, full curve]
